The experiment has as its target HER2/HER4 IgG heterodimers (human) (UniProt P04626+Q15303). Put plainly: Western blot under non reducing conditions probed with HER2/HER4 IgG heterodimers. On the technique in general: Immunoblotting shows a protein as a band on a membrane.

Amino acid sequences for entries named in this document (tags omitted). A change or cut given only in a name is not applied to a line headed by its entry.
UniProt Q15303: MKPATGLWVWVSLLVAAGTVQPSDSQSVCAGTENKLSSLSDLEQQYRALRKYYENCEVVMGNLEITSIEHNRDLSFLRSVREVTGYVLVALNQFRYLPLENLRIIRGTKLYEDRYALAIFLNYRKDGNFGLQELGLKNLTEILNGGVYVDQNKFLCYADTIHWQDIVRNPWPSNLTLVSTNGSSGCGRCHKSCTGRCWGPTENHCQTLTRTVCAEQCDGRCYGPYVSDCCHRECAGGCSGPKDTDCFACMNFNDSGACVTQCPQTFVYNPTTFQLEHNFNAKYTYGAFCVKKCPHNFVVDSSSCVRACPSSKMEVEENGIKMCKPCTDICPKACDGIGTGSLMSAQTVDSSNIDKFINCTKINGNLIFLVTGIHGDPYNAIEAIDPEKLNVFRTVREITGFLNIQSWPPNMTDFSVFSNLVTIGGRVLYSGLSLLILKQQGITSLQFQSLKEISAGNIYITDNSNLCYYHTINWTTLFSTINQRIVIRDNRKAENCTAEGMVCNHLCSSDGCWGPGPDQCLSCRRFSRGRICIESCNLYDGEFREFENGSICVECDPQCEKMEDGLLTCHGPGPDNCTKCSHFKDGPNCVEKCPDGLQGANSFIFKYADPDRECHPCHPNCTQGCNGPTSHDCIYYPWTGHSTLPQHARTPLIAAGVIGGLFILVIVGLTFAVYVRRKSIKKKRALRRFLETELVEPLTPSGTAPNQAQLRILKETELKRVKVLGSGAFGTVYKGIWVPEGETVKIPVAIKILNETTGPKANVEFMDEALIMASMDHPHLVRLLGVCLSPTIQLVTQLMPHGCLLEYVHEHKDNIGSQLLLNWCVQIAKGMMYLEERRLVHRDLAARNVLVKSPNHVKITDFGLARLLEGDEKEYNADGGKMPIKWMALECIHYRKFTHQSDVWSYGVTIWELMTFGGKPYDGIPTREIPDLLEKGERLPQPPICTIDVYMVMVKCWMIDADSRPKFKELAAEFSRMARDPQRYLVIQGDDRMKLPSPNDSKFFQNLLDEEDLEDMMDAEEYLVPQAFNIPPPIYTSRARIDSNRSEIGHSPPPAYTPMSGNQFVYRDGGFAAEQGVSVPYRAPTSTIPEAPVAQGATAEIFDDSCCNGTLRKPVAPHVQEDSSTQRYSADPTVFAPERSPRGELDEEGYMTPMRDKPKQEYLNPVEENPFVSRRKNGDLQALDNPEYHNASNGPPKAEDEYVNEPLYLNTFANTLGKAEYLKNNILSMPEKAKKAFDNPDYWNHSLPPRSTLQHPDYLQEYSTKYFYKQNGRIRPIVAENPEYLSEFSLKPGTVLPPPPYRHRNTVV

These are yes or no findings as the source states them, for the method shown. Some entries that bind do so weakly or less than the wild type.

B1: γ-HRG (partially purified from conditioned medium of MDA-MB-175 cells) (ligand)
chain: MDVKERKPYRSLTRRRDAERRYTSSSADSEEGKAPQKSYSSSETLKAYDQDARLAYGSRVKDIVPQEAEEFCRTGANFTLRELGLEEVTPPHGTLYRTDIGLPHCGYSMGAGSDADMEADTVLSPEHPVRLWGRSTRSGRSSCLSSRANSNLTLTDTEHENTETDHPGGLQNHARLRTPPPPLSHAHTPNQHHAASINSLNRGNFTPRSNPSPAPTDHSLSGEPPAGGAQEPAHAQENWLLNSNIPLETRNLGKQPFLGTLQDNLIEMDILGASRHDGAYSDGHFLFKPGGTSPLFCTTSPGYPLTSSTVYSPPPRPLPRSTFARPAFNLKKPSKYCNWKCAALSAIVISATLVILLAYFVAMHLFGLNWHLQPMEGQMYEITEDTASSWPVPTDVSLYPSGGTGLETPDRKGKGTTEGKPSSFFPEDSFIDSGEIDVGRRASQKIPPGTFWRSQVFIDHPVHLKFNVSLGKAALVGIYGRKGLPPSHTQFDFVELLDGRRLLTQEARSLEGTPRQSRGTVPPSSHETGFIQYLDSGIWHLAFYNDGKESEVVSFLTTAIALPPRLKEMKSQESAAGSKLVLRCETSSEYSSLRFKWFKNGNELNRKNKPQNIKIQKKPGKSELRINKASLADSGEYMCKVISKLGNDSASANITIVESNEIITGMPASTEGAYVSSESPIRISVSTEGANTSSSTSTSTTGTSHLVKCAEKEKTFCVNGGECFMVKDLSNPSRYLCKCPNEFTGDRCQNYVMASFYSTSTPFLSLPE
Consider B1, for which the binding result is listed as “binds”.
